Assay results from US7125546B2, “Polymeric micelle containing cisplatin enclosed therein and use thereof” (Toudai TLO, Ltd., priority 2000, dated 2006).
Some results were stated once for a whole list of compounds, not compound by compound.

Experiment: Blood plasma platinum concentration and accumulation of platinum in tumor and principal organs after caudate vein administration to tumor-bearing mice
Settings: 0–24 hours, tissue platinum concentration-time curve; listed as Free CDDP

Substance: cis-Diaminedichloroplatinum (II) [CDDP]
- Kidney AUC/tumor AUC: ≥ 1
